{
  "source": "patent US6603046B1",
  "about": "“Bis-aromatic a,β-unsaturated ketones” (Lica Pharmaceuticals A/S, priority 1992, dated 2003)",
  "test_system": "P. yoelii strain YM",
  "experiment": "P. yoelii strain YM infection in mice, parasitemia and mortality (Example 16)",
  "format": "in vivo, BALB/c mice",
  "note": "“And” between values parts separate entries of the source, which are not always exact repeats. Equal entries are not always repeated. Further values from the same series stand in other lists.",
  "data": [
    {"smiles": "C=CC(C)(C)c1cc(/C=C/C(=O)c2ccc(O)cc2)c(OC)cc1O", "note": "[Licochalcone A, licochalcone A]", "values": [
      {"measurement": "Parasitemia, single mice", "setting": "D + 4, 10 mg/kg i.p. 1 hour after infection, two times per day on D + 1 and D + 2", "result": 0.1, "unit": "%"},
      {"measurement": "Parasitemia, single mice", "setting": "D + 4, one i.p. injection 10 mg/kg 3 hours before infection, 10 mg/kg", "result": "1.0% and 2.0%"},
      {"measurement": "% parasitemia, single mice", "setting": "D + 4, orally 100 mg/kg/dose 3 and 24 h after infection, 100 mg/kg", "result": "0.5% and 1.0% and 1.5%"},
      {"measurement": "Parasitemia, single mice", "setting": "D + 5, 10 mg/kg i.p. 1 hour after infection, two times per day on D + 1 and D + 2, 10 mg/kg", "result": "0.1% and 0.5%"},
      {"measurement": "Parasitemia, single mice", "setting": "D + 5, one i.p. injection 10 mg/kg 3 hours before infection, 10 mg/kg", "result": "5.0% and 6.0%"},
      {"measurement": "Parasitemia, single mice", "setting": "D + 6, 10 mg/kg i.p. 1 hour after infection, two times per day on D + 1 and D + 2", "result": 0.5, "unit": "%"},
      {"measurement": "Parasitemia, single mice", "setting": "D + 6, one i.p. injection 10 mg/kg 3 hours before infection, 10 mg/kg", "result": "22.0% and 21.0%"},
      {"measurement": "Parasitemia, single mice", "setting": "D + 7, 10 mg/kg i.p. 1 hour after infection, two times per day on D + 1 and D + 2, 10 mg/kg", "result": "1.5% and 0.8%"},
      {"measurement": "% parasitemia, single mice", "setting": "D + 7, intraperitoneal Micro-Osmotic Pump 6 mg/100 μl/mouse, released during 7 days", "result": "0.5% and 0%"},
      {"measurement": "Parasitemia, single mice", "setting": "D + 7, one i.p. injection 10 mg/kg 3 hours before infection, 10 mg/kg", "result": "55.0% and 45.0%"},
      {"measurement": "Parasitemia, single mice", "setting": "D + 8, 10 mg/kg i.p. 1 hour after infection, two times per day on D + 1 and D + 2", "result": 0.1, "unit": "%"},
      {"measurement": "Parasitemia, single mice", "setting": "D + 9, 10 mg/kg i.p. 1 hour after infection, two times per day on D + 1 and D + 2", "result": 0.1, "unit": "%"},
      {"measurement": "% parasitemia, single mice", "setting": "D + 9, intraperitoneal Micro-Osmotic Pump 6 mg/100 μl/mouse, released during 7 days", "result": "6% and 0%"},
      {"measurement": "Parasitemia, single mice", "setting": "D + 9, one i.p. injection 10 mg/kg 3 hours before infection, 10 mg/kg", "result": "85.0% and 82.0%"},
      {"measurement": "Parasitemia, single mice", "setting": "D + 10, 10 mg/kg i.p. 1 hour after infection, two times per day on D + 1 and D + 2", "result": 0.00, "unit": "%"},
      {"measurement": "Parasitemia, single mice", "setting": "D + 11, 10 mg/kg/day in 2 injections, days +1 to +6, 10 mg/kg/day", "result": "67.0% and 71.0%"},
      {"measurement": "Parasitemia, single mice", "setting": "D + 11, 20 mg/kg/day in 2 injections, days +1 to +6, 20 mg/kg/day", "result": "15.0% and 19.2%"},
      {"measurement": "Parasitemia, single mice", "setting": "D + 11, 40 mg/kg/day in 2 injections, days +1 to +6, 40 mg/kg/day", "result": 50.0, "unit": "%"},
      {"measurement": "Parasitemia, single mice", "setting": "D + 12, 10 mg/kg/day in 2 injections, days +1 to +6, 10 mg/kg/day", "result": "85.0% and 89.0%"},
      {"measurement": "Parasitemia, single mice", "setting": "D + 12, 20 mg/kg/day in 2 injections, days +1 to +6, 20 mg/kg/day", "result": "23.0% and 26.0%"},
      {"measurement": "Parasitemia, single mice", "setting": "D + 12, 40 mg/kg/day in 2 injections, days +1 to +6, 40 mg/kg/day", "result": "76.0% and 81.0%"},
      {"measurement": "Parasitemia, single mice", "setting": "D + 13, 10 mg/kg/day in 2 injections, days +1 to +6", "result": 90.0, "unit": "%"},
      {"measurement": "Parasitemia, single mice", "setting": "D + 13, 20 mg/kg/day in 2 injections, days +1 to +6, 20 mg/kg/day", "result": "12.0% and 15.0%"},
      {"measurement": "Parasitemia, single mice", "setting": "D + 13, 40 mg/kg/day in 2 injections, days +1 to +6, 40 mg/kg/day", "result": "89.0% and 88.0%"},
      {"measurement": "% parasitemia, single mice", "setting": "D + 13, orally 100 mg/kg/dose 3 and 24 h after infection, 100 mg/kg", "result": "5.0% and 8.0%"},
      {"measurement": "Parasitemia, single mice", "setting": "D + 14, 10 mg/kg/day in 2 injections, days +1 to +6", "result": "died"},
      {"measurement": "Parasitemia, single mice", "setting": "D + 14, 20 mg/kg/day in 2 injections, days +1 to +6, 20 mg/kg/day", "result": "5.0% and 8.0%"},
      {"measurement": "Parasitemia, single mice", "setting": "D + 14, 40 mg/kg/day in 2 injections, days +1 to +6", "result": "died"},
      {"measurement": "Parasitemia, single mice", "setting": "D + 16, 20 mg/kg/day in 2 injections, days +1 to +6, 20 mg/kg/day", "result": "0.1% and 0.5%"},
      {"measurement": "% parasitemia, single mice", "setting": "D + 16, orally 100 mg/kg/dose 3 and 24 h after infection", "result": 0, "unit": "%"},
      {"measurement": "Parasitemia, single mice", "setting": "D + 18, 20 mg/kg/day in 2 injections, days +1 to +6", "result": 0.0, "unit": "%"}
    ]}
  ]
}
